# Results published in PMC4670963.
# Protein sequences, listed by entry. Tags and fused reporters are not part of them. Residues count along the entry.
# UniProt P08151: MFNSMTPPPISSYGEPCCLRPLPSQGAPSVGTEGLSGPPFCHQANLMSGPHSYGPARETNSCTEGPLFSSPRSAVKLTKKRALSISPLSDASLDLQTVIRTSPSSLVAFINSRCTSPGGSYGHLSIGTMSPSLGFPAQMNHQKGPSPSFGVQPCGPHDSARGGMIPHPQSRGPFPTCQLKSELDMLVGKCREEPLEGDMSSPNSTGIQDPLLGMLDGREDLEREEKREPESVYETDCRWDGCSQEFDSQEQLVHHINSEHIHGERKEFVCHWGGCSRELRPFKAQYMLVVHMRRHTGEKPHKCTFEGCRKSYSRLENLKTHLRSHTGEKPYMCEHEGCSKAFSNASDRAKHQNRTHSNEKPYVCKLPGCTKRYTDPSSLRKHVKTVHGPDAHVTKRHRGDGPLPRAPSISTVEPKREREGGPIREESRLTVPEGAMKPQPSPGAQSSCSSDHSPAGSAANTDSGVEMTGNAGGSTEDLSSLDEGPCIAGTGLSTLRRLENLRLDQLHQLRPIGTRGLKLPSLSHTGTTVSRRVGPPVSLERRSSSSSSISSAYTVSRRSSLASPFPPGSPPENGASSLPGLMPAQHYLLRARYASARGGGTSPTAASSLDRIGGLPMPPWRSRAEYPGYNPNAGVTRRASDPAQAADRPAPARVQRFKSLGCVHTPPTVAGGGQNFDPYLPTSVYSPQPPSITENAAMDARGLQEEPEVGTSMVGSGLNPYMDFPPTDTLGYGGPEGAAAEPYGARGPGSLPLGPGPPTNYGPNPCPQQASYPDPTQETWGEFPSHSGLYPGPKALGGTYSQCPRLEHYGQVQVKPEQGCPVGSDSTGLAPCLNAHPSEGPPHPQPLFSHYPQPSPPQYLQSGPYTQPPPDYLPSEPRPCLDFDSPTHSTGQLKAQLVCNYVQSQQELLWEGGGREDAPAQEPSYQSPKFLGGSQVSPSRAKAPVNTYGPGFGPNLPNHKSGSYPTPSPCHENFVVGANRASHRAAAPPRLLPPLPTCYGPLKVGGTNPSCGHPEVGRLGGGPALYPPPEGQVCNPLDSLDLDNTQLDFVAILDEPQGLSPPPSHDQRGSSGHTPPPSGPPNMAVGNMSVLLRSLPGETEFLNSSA
# UniProt P10070: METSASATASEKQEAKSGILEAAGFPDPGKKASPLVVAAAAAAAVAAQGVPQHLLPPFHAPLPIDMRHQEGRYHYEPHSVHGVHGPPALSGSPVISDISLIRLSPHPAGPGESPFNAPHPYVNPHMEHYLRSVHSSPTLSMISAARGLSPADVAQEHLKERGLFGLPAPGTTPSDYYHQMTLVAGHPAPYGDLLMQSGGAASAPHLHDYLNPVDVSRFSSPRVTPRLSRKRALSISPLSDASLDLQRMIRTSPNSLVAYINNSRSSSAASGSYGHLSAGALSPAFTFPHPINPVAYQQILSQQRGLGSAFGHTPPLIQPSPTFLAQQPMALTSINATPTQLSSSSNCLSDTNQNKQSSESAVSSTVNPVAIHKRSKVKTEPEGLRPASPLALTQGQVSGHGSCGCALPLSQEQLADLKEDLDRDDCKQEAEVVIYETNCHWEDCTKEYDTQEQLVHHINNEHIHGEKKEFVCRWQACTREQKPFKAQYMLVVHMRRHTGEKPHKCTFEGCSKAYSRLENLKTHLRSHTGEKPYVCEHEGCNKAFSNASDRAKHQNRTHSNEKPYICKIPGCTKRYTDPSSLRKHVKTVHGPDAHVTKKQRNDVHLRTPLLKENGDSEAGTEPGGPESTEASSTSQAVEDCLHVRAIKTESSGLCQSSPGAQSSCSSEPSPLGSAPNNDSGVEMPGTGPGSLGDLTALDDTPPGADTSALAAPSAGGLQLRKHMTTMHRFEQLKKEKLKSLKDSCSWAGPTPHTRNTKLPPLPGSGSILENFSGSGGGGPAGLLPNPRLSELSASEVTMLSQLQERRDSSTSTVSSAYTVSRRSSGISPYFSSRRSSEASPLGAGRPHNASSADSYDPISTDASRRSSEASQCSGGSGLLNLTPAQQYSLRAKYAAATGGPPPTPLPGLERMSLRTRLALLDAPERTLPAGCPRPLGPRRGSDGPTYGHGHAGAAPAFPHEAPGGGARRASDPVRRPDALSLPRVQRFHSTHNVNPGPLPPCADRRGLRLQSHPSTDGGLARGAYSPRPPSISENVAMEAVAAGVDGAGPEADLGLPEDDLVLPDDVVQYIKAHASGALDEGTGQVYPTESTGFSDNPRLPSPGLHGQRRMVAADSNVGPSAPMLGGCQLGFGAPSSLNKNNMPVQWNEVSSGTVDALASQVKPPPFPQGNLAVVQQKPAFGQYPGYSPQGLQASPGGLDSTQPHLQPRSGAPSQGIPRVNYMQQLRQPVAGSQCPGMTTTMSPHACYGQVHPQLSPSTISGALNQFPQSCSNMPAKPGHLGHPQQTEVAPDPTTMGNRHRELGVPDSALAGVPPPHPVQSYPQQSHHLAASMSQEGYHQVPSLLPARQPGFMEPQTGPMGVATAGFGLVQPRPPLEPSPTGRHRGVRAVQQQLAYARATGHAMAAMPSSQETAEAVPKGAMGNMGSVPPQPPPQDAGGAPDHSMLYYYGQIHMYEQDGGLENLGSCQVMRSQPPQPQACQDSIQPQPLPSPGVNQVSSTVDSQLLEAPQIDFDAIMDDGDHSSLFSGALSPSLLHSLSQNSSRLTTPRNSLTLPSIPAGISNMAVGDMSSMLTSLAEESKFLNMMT
# UniProt P08631, residues 22-526: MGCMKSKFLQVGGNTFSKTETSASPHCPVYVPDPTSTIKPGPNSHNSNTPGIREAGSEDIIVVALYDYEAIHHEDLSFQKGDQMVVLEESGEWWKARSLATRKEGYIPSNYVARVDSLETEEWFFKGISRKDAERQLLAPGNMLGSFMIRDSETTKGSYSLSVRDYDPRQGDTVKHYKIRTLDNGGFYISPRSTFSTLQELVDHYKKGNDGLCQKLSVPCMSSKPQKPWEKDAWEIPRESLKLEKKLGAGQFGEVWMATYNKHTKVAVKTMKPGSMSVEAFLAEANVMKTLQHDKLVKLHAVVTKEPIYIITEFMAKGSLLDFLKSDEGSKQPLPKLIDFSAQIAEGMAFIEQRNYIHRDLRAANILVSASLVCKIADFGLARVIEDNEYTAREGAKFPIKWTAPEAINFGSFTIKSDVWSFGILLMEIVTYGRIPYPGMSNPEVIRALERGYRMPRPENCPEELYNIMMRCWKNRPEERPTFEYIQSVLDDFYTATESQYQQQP
# Results are given in words; binding and its absence hold for the method and conditions named. Binding seen in cells or lysates may run through a third protein. Some results given as binding are weak or reduced against the parent protein; the word gives no strength. For some assays here: Sequences can lack the tags named with a protein.
# Tests used:
# Flag-tagged Sufu = target: T1, Flag-tagged Sufu (UniProt Q9UMX1); test: co-IP; NIH3T3 cells transfected with HA-Gli1 or HA-Gli2 and Flag-Sufu, without exogenous Hck; immunoprecipitated with anti-Flag; western blot with anti-HA or anti-Flag; bands quantified with ImageJ against the input
# T1 sequence: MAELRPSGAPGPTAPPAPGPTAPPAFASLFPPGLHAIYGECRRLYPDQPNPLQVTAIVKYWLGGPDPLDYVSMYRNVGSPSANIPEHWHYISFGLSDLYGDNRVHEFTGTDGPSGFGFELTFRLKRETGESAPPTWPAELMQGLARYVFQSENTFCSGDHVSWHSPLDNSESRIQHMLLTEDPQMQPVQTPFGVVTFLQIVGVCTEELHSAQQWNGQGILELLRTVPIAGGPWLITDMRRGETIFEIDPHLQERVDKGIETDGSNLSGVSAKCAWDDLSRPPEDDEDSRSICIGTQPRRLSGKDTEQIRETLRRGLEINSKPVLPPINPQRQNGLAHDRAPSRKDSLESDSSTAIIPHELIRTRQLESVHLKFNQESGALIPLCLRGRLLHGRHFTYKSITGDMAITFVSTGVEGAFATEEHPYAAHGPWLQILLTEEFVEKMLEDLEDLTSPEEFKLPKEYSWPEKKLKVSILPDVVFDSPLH
# Gli1-GFP (human) = Gli1-GFP (human) (UniProt P08151); test: co-IP; NIH3T3 cells transfected with Gli1-GFP and/or HA-Hck; lysate in 50 mM Tris pH 8.0, 150 mM NaCl, 1 mM EDTA, 1% Triton X-100; immunoprecipitated with anti-GFP, protein A beads, 4 °C overnight; western blot with anti-Gli1, anti-HA and 4G10
binding (Flag-tagged Sufu),binding (Gli1-GFP (human)),Substance
binds,,HA-Gli2 (from UniProt P10070 1-1586)
,binds,HA-Hck (from UniProt P08631-2 1-505) (enzyme)
